Results: patent US20200407726A1
No constants are given. Whether binding was seen depends on the method and setting. Binding seen in cells or lysates may run through a third protein. Some results given as binding are weak or reduced against the parent protein; the word gives no strength. Tags and fused reporters may be left off the sequences shown.

The chains behind the UniProt entries cited, without tags or fusion partners. Where a name states a change or a piece, a line headed by the entry shows the natural chain unless it says otherwise.
UniProt Q8C1W1: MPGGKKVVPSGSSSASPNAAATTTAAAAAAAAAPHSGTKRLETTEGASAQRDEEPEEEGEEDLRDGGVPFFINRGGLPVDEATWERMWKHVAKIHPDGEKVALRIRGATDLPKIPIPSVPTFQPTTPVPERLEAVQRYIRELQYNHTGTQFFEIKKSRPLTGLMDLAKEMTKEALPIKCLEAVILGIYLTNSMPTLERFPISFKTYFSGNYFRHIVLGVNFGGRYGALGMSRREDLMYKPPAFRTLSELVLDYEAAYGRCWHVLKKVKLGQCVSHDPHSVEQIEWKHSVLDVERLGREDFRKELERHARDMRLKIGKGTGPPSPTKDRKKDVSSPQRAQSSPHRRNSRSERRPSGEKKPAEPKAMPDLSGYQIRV
UniProt Q8C5G2: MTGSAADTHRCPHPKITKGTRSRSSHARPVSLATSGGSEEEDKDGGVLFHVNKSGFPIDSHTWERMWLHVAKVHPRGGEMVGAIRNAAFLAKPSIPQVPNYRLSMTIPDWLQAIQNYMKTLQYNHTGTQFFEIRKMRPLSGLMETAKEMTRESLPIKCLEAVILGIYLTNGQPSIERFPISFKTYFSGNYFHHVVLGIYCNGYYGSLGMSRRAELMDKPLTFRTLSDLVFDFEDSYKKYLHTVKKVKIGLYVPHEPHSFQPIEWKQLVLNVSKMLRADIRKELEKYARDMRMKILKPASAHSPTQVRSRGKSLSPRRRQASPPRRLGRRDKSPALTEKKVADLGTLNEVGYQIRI

Tests used:
[1] = biological target: Flag-(dead)VASH1-sfGFP-His (mouse vasohibin-1 C179A, catalytic dead) (mouse) (UniProt Q8C1W1); test: co-expression in HEK293T cells, cobalt resin co-purification
[2] = biological target: Flag-(dead)VASH2-sfGFP-His (mouse vasohibin-2 C158A, catalytic dead) (mouse) (UniProt Q8C5G2); test: as above
[3] = biological target: Flag-VASH1-sfGFP-His (mouse vasohibin-1) (mouse) (UniProt Q8C1W1); test: as above
[4] = biological target: Flag-VASH2-sfGFP-His (mouse vasohibin-2) (mouse) (UniProt Q8C5G2); test: as above
[5] = biological target: Flag-(dead)VASH1-sfGFP-His (mouse vasohibin-1 C179A, catalytic dead) (mouse) (UniProt Q8C1W1); test: cobalt resin co-purification, anti-His and anti-Flag Western blot
[6] = biological target: Flag-(dead)VASH2-sfGFP-His (mouse vasohibin-2 C158A, catalytic dead) (mouse) (UniProt Q8C5G2); test: as above
[7] = biological target: Flag-VASH1-sfGFP-His (mouse vasohibin-1) (mouse) (UniProt Q8C1W1); test: as above
[8] = biological target: Flag-VASH2-sfGFP-His (mouse vasohibin-2) (mouse) (UniProt Q8C5G2); test: as above

Measured: binding

B1: SVBP-Myc-Flag (mouse Small Vasohibin-Binding Protein with C-terminal Myc and Flag tags) (protein, UniProt Q99LQ4 1-66, looked up, not shown: small tags and cut ends)
chain: MDPPARKEKSKVKEPAFRVEKAKQKSAQQELKQRQRAEIYALNRVMTELEQQQFDEFCKQMQPPGE
binds: all assays above
